# Results published in patent US7514579B2, “Boronic chalcone derivatives and uses thereof” (Johns Hopkins University, priority 2002, dated 2009).
# Some entries share one result that the patent states for a list of compounds. Some compounds share one range, which may span the group rather than tell each member.
# Tested on: human breast cancer cell lines (MDA-MB-435, MDA-MB-231, wt-MCF7) and normal breast epithelial cell lines (MCF-10A, MCF-12A)
# Test: MTT assay, breast cancer cell lines compared with normal breast epithelial cell lines
# Type: cell-based
# Details: from IC50 values of Table 1
row,SMILES,fold more toxic to human breast cancer cell lines compared to normal breast epithelial cell lines
1,O=C(/C=C/c1ccc(I)cc1)c1ccc(B(O)O)cc1 [Compound 3a],5-10 fold
2,O=C(/C=C/c1ccc(I)cc1)c1ccc(OCB(O)O)cc1 [Compound 7],5-10 fold
3,O=C(/C=C/c1ccc(F)c(Br)c1)c1ccc(B(O)O)cc1 [Compound 3e],5-10 fold
4,O=C(/C=C/c1ccc(Cl)c(Cl)c1)c1ccc(B(O)O)cc1 [Compound 8],5-10 fold
5,O=C(/C=C/c1ccc(F)c(F)c1)c1ccc(B(O)O)cc1 [Compound 3d],5-10 fold
